The results in this text go back to publication PMC5466756.

Sequences of proteins named here, by UniProt entry; tags and fusion partners are left off. Residues count along the entry.
UniProt P28799, residues 18-593: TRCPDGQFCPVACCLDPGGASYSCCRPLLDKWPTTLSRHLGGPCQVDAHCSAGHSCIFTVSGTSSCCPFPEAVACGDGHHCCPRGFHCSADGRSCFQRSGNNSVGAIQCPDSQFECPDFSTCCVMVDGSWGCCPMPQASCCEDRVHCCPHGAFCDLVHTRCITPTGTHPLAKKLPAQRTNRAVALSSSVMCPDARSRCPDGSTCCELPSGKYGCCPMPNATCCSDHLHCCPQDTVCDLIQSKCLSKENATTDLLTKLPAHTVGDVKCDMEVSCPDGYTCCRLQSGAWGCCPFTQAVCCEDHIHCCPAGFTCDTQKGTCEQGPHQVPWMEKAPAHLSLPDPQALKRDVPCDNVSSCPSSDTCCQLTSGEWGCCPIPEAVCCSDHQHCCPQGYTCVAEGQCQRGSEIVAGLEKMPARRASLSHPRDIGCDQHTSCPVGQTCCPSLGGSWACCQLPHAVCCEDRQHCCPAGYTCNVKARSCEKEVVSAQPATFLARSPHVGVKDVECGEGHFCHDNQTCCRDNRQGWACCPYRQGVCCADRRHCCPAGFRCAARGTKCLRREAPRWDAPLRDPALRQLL
UniProt P11021, residues 19-654: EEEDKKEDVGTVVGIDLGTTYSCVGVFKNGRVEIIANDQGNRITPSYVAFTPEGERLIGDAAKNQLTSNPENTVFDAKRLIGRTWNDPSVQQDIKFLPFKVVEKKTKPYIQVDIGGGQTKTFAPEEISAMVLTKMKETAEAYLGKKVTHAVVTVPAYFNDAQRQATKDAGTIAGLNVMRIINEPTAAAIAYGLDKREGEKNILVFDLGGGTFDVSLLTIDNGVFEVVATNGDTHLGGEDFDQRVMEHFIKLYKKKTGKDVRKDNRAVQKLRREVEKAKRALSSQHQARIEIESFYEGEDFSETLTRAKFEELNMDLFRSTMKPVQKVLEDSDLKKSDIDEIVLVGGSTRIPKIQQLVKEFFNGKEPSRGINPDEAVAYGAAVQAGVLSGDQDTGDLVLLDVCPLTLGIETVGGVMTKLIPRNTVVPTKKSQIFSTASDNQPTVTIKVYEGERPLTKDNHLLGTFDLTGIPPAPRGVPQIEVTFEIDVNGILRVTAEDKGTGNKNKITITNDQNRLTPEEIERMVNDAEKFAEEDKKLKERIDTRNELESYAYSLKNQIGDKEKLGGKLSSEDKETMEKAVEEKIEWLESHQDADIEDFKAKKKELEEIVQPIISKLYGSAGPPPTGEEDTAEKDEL

Results are given in words; binding and its absence hold for the method and conditions named. Binding seen in cells or lysates may run through a third protein. A yes stands for co-enrichment or nearness to the bait. Other partners may have been found.

This test deals with Granulin-epithelin precursor (human) (UniProt P28799). As to the kind of experiment: affinity purification with mass spectrometry; lysate of the membrane fraction of Hep3B-FL (1% Triton X-100 lysis buffer) incubated with monoclonal anti-GEP antibody A23 overnight at 4 °C, protein G-Sepharose; the single extra Coomassie band (about 85 kDa) excised and identified by MALDI-TOF/TOF MS; controls lysate alone and antibody alone.

In the case of “78-kDa glucose-regulated protein (from UniProt P11021 19-654)”, the binding entry is “binds”.
